{
  "sequences": {"note": "Protein sequences, listed by entry. Tags and fused reporters are not part of them. Lines headed by an entry give the natural chain unless they say otherwise; changes in a name come on top. Chains listed by the source or under a name are the forms on record and can include a tag or linker.", "0N4R wild-type human tau (P10636, form named)": "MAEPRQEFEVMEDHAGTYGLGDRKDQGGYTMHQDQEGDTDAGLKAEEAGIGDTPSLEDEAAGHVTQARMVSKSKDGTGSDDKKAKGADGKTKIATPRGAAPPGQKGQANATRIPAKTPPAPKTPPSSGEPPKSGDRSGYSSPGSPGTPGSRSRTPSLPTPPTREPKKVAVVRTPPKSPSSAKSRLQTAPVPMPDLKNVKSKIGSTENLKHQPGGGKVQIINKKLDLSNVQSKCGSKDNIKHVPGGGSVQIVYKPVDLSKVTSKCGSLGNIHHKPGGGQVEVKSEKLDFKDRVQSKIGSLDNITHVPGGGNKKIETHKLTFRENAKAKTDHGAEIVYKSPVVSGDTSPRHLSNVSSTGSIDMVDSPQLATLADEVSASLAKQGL", "UniProt O35465": "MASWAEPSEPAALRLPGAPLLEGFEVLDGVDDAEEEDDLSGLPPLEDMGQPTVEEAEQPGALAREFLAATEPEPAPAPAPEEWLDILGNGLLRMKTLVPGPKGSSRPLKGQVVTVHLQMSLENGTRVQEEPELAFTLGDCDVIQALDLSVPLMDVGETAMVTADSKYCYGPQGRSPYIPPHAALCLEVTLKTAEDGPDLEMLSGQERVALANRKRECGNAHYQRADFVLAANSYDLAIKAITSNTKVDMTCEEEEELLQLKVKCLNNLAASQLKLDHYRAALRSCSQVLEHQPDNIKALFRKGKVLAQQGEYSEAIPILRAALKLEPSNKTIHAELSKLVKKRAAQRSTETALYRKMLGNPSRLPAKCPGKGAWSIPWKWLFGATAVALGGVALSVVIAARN"},
  "source": "paper PMC11698316",
  "target": "0N4R wild-type human tau (human) (UniProt P10636)",
  "assay": "co-IP; 500 ug lysate of stable HT22 cells (150 mM NaCl, 50 mM Tris-HCl, 1 mM EDTA, 1 mM EGTA, 0.5% NP-40, pH 7.4); rabbit anti-tau (DAKO tau) or rabbit IgG control overnight at 4°C, protein A/G magnetic agarose beads 6 h at 4°C; blot probed with mouse anti-FKBP8",
  "note": "No constants are given. Whether binding was seen depends on the method and setting. Binding seen in cells or lysates may run through a third protein. Some results given as binding are weak or reduced against the parent protein; the word gives no strength.",
  "data": [
    {"substance": "FK506-binding protein prolyl isomerase 8 (FKBP8/FKBP38) (from UniProt O35465 1-402)", "values": [
      {"measurement": "binding", "result": "binds"}
    ]}
  ]
}
